Assay results from article doi:10.1101/779520.
These are yes or no findings as the source states them, for the method shown. Binding seen in cells or lysates may run through a third protein. Where a sequence is shown, tags or fusion partners need not be part of it.

Target: T1, HEK293T-expressed HA peptide (mCherry-P2A-HA)
T1 sequence (peptide): YPYDVPDYA
Experiment: pull-down

protein kinase C α (from UniProt P20444 1-672) (enzyme)
binding: no binding
